Results: publication PMC8058732
These are yes or no findings as the source states them, for the method shown. In cells and extracts the contact can be indirect. Some binding calls cover weakened binding; strength is not graded here.

Protein sequences, listed by entry. Tags and fused reporters are not part of them.
UniProt O95863: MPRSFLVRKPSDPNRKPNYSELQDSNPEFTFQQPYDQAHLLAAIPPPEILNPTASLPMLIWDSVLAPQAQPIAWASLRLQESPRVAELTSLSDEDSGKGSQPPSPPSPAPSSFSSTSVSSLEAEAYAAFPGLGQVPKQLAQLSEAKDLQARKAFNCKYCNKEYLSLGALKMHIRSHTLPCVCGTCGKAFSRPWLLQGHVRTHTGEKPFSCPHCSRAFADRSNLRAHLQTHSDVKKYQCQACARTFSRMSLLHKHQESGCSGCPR
UniProt O00487: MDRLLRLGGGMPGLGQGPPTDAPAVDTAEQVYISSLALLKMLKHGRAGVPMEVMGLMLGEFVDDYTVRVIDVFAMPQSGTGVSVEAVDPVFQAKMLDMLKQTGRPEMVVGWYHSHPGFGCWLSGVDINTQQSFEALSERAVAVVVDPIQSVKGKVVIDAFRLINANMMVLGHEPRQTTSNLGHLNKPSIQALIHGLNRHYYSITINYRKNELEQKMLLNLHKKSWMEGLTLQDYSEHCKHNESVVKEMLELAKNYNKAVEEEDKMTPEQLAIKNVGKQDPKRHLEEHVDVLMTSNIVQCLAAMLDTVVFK

Columns and labels:
[1] = molecular target: SNAIL (human (endogenous in KYSE 30 and KYSE 150)) (UniProt O95863); experiment: co-IP; whole cell lysates of KYSE 30 (and KYSE 150) cells treated with THL or DMSO for 24 h; incubated with anti-SNAIL or anti-PSMD14 antibody or normal IgG at 4 °C overnight, protein A/G agarose beads 2 h; immunoblotting
[2] = molecular target: 26S proteasome non-ATPase regulatory subunit 14 (PSMD14) (human (endogenous in KYSE 30 and KYSE 150)) (UniProt O00487); experiment: as above

Row | binding [1] | binding [2] | Substance
1 | binds |  | 26S proteasome non-ATPase regulatory subunit 14 (PSMD14) (from UniProt O00487 1-310) (enzyme)
2 |  | binds | SNAIL (from UniProt O95863 1-264)
